# Some of the results follow.
# What was measured:
# Assay in all cases: glycan array binding signal (z-score within array); higher = stronger binding
# Conditions in all cases: glycan notation: IUPAC condensed, linker removed
# [1] = molecular target: GlcNAc(b1-4)GlcNAc(b1-4)GlcNAc(b1-4)GlcNAc(b1-4)GlcNAc
# How it was run: (§1)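 Glycan array binding is given as a within-array Z-score, which can be read as non-binding when negative. The arrays, 3228 of them, came from the Consortium for Functional Glycomics database and were retained only where the protein sequence was available. Z-scores were averaged across arrays of the same protein sequence at different concentrations or buffers and across linkers.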
# [2] = molecular target: GlcNAc(b1-4)GlcNAc(b1-4)GlcNAc(b1-4)GlcNAc(b1-4)GlcNAc(b1-4)GlcNAc
# How it was run: as §1
# [3] = molecular target: GlcNAc(b1-4)[GlcNAc(b1-6)]GalNAc
# How it was run: as §1
# [4] = molecular target: GlcNAc(b1-6)Gal(b1-4)GlcNAc
# How it was run: as §1
# GlcNAc(b1-6)GalNAc = molecular target: GlcNAc(b1-6)GalNAc
# How it was run: as §1
# [5] = molecular target: GlcNAc6S(b1-3)Gal(b1-4)GlcNAc
# How it was run: as §1
# Kdn(a2-3)Gal(b1-3)GalNAc = molecular target: Kdn(a2-3)Gal(b1-3)GalNAc
# How it was run: as §1
# Kdn(a2-3)Gal(b1-3)GlcNAc = molecular target: Kdn(a2-3)Gal(b1-3)GlcNAc
# How it was run: as §1
# Kdn(a2-3)Gal(b1-4)Glc = molecular target: Kdn(a2-3)Gal(b1-4)Glc
# How it was run: as §1
# Kdn(a2-3)Gal(b1-4)GlcNAc = molecular target: Kdn(a2-3)Gal(b1-4)GlcNAc
# How it was run: as §1
# [6] = molecular target: Kdn(a2-3)Gal(b1-4)[Fuc(a1-3)]GlcNAc
# How it was run: as §1
# Kdn(a2-6)Gal(b1-4)GlcNAc = molecular target: Kdn(a2-6)Gal(b1-4)GlcNAc
# How it was run: as §1
# [7] = molecular target: Man(a1-2)Man(a1-2)Man(a1-3)Man
# How it was run: as §1
# [8] = molecular target: Man(a1-2)Man(a1-2)Man(a1-6)[Man(a1-3)]Man
# How it was run: as §1
# Man(a1-2)Man(a1-3)Man = molecular target: Man(a1-2)Man(a1-3)Man
# How it was run: as §1
# [9] = molecular target: Man(a1-2)Man(a1-3)[Man(a1-2)Man(a1-6)]Man
# How it was run: as §1
# [10] = molecular target: Man(a1-2)Man(a1-3)[Man(a1-2)Man(a1-6)]Man(a1-6)[Man(a1-2)Man(a1-2)Man(a1-3)]Man
# How it was run: as §1
# [11] = molecular target: Man(a1-2)Man(a1-3)[Man(a1-2)Man(a1-6)]Man(a1-6)[Man(a1-2)Man(a1-2)Man(a1-3)]Man(b1-4)GlcNAc(b1-4)GlcNAc
# How it was run: as §1
# [12] = molecular target: Man(a1-2)Man(a1-3)[Man(a1-6)]Man(a1-6)[Man(a1-2)Man(a1-3)]Man(b1-4)GlcNAc(b1-4)GlcNAc
# How it was run: as §1
# [13] = molecular target: Man(a1-2)Man(a1-6)[Man(a1-3)]Man(a1-6)[Man(a1-2)Man(a1-2)Man(a1-3)]Man
# How it was run: as §1
# [14] = molecular target: Man(a1-2)Man(a1-6)[Man(a1-3)]Man(a1-6)[Man(a1-2)Man(a1-2)Man(a1-3)]Man(b1-4)GlcNAc(b1-4)GlcNAc
# How it was run: as §1
# Man(a1-3)[Man(a1-6)]Man = molecular target: Man(a1-3)[Man(a1-6)]Man
# How it was run: as §1
# [15] = molecular target: Man(a1-3)[Man(a1-6)]Man(a1-6)[Man(a1-2)Man(a1-3)]Man(b1-4)GlcNAc(b1-4)GlcNAc
# How it was run: as §1
# [16] = molecular target: Man(a1-3)[Man(a1-6)]Man(a1-6)[Man(a1-3)]Man
# How it was run: as §1
# [17] = molecular target: Man(a1-3)[Man(a1-6)]Man(a1-6)[Man(a1-3)]Man(b1-4)GlcNAc(b1-4)GlcNAc
# How it was run: as §1
# [18] = molecular target: Man(a1-3)[Man(a1-6)]Man(b1-4)GlcNAc(b1-4)GlcNAc
# How it was run: as §1
# [19] = molecular target: Man(a1-3)[Man(a1-6)]Man(b1-4)GlcNAc(b1-4)[Fuc(a1-6)]GlcNAc
# How it was run: as §1
# Man(a1-6)Man = molecular target: Man(a1-6)Man
# How it was run: as §1
# Man(b1-4)GlcNAc = molecular target: Man(b1-4)GlcNAc
# How it was run: as §1
# MurNAc(b1-4)GlcNAc = molecular target: MurNAc(b1-4)GlcNAc
# How it was run: as §1
# Neu5Ac(a2-3)Gal = molecular target: Neu5Ac(a2-3)Gal
# How it was run: as §1
# [20] = molecular target: Neu5Ac(a2-3)Gal(b1-3)GalNAc
# How it was run: as §1
# [21] = molecular target: Neu5Ac(a2-3)Gal(b1-3)GalNAc(b1-3)Gal(a1-4)Gal(b1-4)Glc
# How it was run: as §1
# [22] = molecular target: Neu5Ac(a2-3)Gal(b1-3)GalNAc(b1-4)Gal(b1-4)Glc
# How it was run: as §1
# [23] = molecular target: Neu5Ac(a2-3)Gal(b1-3)GalNAc(b1-4)[Neu5Ac(a2-3)]Gal(b1-4)Glc
# How it was run: as §1
# [24] = molecular target: Neu5Ac(a2-3)Gal(b1-3)GalNAc(b1-4)[Neu5Ac(a2-8)Neu5Ac(a2-3)]Gal(b1-4)Glc
# How it was run: as §1
# [25] = molecular target: Neu5Ac(a2-3)Gal(b1-3)GalNAc6S
# How it was run: as §1
binder,measurement,setting,value
"MtEccB1 (Mycobacterium tuberculosis H37Rv), O69734 (protein) MGLRLTTKVQVSGWRFLLRRLEHAIVRRDTRMFDDPLQFYSRSIALGIVVAVLILAGAALLAYFKPQGKLGGTSLFTDRATNQLYVLLSGQLHPVYNLTSARLVLGNPANPATVKSSELSKLPMGQTVGIPGAPYATPVSAGSTSIWTLCDTVARADSTSPVVQTAVIAMPLEIDASIDPLQSHEAVLVSYQGETWIVTTKGRHAIDLTDRALTSSMGIPVTARPTPISEGMFNALPDMGPWQLPPIPAAGAPNSLGLPDDLVIGSVFQIHTDKGPQYYVVLPDGIAQVNATTAAALRATQAHGLVAPPAMVPSLVVRIAERVYPSPLPDEPLKIVSRPQDPALCWSWQRSAGDQSPQSTVLSGRHLPISPSAMNMGIKQIHGTATVYLDGGKFVALQSPDPRYTESMYYIDPQGVRYGVPNAETAKSLGLSSPQNAPWEIVRLLVDGPVLSKDAALLEHDTLPADPSPRKVPAGASGAP",glycan array binding signal (z-score),[1],-0.566
same,glycan array binding signal (z-score),[2],-2.06
same,glycan array binding signal (z-score),[3],-0.393
same,glycan array binding signal (z-score),[4],1.08
same,glycan array binding signal (z-score),GlcNAc(b1-6)GalNAc,0.192
same,glycan array binding signal (z-score),[5],-0.827
same,glycan array binding signal (z-score),Kdn(a2-3)Gal(b1-3)GalNAc,0.396
same,glycan array binding signal (z-score),Kdn(a2-3)Gal(b1-3)GlcNAc,-0.55
same,glycan array binding signal (z-score),Kdn(a2-3)Gal(b1-4)Glc,-0.792
same,glycan array binding signal (z-score),Kdn(a2-3)Gal(b1-4)GlcNAc,-0.433
same,glycan array binding signal (z-score),[6],-1.29
same,glycan array binding signal (z-score),Kdn(a2-6)Gal(b1-4)GlcNAc,-0.865
same,glycan array binding signal (z-score),[7],-1.02
same,glycan array binding signal (z-score),[8],0.061
same,glycan array binding signal (z-score),Man(a1-2)Man(a1-3)Man,-0.429
same,glycan array binding signal (z-score),[9],-0.202
same,glycan array binding signal (z-score),[10],-0.521
same,glycan array binding signal (z-score),[11],-0.633
same,glycan array binding signal (z-score),[12],-0.476
same,glycan array binding signal (z-score),[13],-0.312
same,glycan array binding signal (z-score),[14],-1.16
same,glycan array binding signal (z-score),Man(a1-3)[Man(a1-6)]Man,0.143
same,glycan array binding signal (z-score),[15],1.24
same,glycan array binding signal (z-score),[16],1.83
same,glycan array binding signal (z-score),[17],-1.33
same,glycan array binding signal (z-score),[18],0.351
same,glycan array binding signal (z-score),[19],0.339
same,glycan array binding signal (z-score),Man(a1-6)Man,-0.491
same,glycan array binding signal (z-score),Man(b1-4)GlcNAc,0.201
same,glycan array binding signal (z-score),MurNAc(b1-4)GlcNAc,-0.788
same,glycan array binding signal (z-score),Neu5Ac(a2-3)Gal,-0.428
same,glycan array binding signal (z-score),[20],1.54
same,glycan array binding signal (z-score),[21],-0.38
same,glycan array binding signal (z-score),[22],0.333
same,glycan array binding signal (z-score),[23],3.37
same,glycan array binding signal (z-score),[24],-0.694
same,glycan array binding signal (z-score),[25],0.633

# Some of the entries above, set out differently:
binder | measurement | setting | value
MtEccB1 (Mycobacterium tuberculosis H37Rv), O69734 (protein) MGLRLTTKVQVSGWRFLLRRLEHAIVRRDTRMFDDPLQFYSRSIALGIVVAVLILAGAALLAYFKPQGKLGGTSLFTDRATNQLYVLLSGQLHPVYNLTSARLVLGNPANPATVKSSELSKLPMGQTVGIPGAPYATPVSAGSTSIWTLCDTVARADSTSPVVQTAVIAMPLEIDASIDPLQSHEAVLVSYQGETWIVTTKGRHAIDLTDRALTSSMGIPVTARPTPISEGMFNALPDMGPWQLPPIPAAGAPNSLGLPDDLVIGSVFQIHTDKGPQYYVVLPDGIAQVNATTAAALRATQAHGLVAPPAMVPSLVVRIAERVYPSPLPDEPLKIVSRPQDPALCWSWQRSAGDQSPQSTVLSGRHLPISPSAMNMGIKQIHGTATVYLDGGKFVALQSPDPRYTESMYYIDPQGVRYGVPNAETAKSLGLSSPQNAPWEIVRLLVDGPVLSKDAALLEHDTLPADPSPRKVPAGASGAP | glycan array binding signal (z-score) | Man(b1-4)GlcNAc | 0.201
same | glycan array binding signal (z-score) | Neu5Ac(a2-3)Gal | -0.428

# From the supplement of paper PMC8728848
